Source: article doi:10.1101/205625
These are yes or no findings as the source states them, for the method shown. Some entries that bind do so weakly or less than the wild type.

Protein sequences, listed by entry. Tags and fused reporters are not part of them.
UniProt Q96ST8: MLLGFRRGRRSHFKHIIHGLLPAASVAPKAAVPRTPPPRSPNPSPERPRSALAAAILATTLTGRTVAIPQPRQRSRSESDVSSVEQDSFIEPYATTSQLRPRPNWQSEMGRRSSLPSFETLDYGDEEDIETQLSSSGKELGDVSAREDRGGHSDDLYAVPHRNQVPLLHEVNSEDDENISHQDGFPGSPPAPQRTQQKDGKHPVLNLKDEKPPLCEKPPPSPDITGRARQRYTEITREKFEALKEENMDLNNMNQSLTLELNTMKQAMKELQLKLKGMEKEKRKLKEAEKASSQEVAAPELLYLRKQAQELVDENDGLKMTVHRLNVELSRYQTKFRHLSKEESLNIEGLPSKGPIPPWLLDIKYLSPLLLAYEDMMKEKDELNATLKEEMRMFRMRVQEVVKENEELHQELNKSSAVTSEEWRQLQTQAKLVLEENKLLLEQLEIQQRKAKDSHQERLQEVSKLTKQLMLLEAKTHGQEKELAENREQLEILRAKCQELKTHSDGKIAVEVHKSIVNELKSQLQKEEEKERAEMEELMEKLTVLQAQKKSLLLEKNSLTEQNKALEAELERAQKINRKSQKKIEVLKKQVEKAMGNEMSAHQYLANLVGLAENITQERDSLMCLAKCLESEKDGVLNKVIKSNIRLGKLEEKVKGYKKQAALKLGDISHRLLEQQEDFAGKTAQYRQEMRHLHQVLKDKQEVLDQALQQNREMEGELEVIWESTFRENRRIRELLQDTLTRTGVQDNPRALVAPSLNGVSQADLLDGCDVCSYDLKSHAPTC

T1: Cep83 constructs (human) (UniProt Q9Y592)
T1 sequence: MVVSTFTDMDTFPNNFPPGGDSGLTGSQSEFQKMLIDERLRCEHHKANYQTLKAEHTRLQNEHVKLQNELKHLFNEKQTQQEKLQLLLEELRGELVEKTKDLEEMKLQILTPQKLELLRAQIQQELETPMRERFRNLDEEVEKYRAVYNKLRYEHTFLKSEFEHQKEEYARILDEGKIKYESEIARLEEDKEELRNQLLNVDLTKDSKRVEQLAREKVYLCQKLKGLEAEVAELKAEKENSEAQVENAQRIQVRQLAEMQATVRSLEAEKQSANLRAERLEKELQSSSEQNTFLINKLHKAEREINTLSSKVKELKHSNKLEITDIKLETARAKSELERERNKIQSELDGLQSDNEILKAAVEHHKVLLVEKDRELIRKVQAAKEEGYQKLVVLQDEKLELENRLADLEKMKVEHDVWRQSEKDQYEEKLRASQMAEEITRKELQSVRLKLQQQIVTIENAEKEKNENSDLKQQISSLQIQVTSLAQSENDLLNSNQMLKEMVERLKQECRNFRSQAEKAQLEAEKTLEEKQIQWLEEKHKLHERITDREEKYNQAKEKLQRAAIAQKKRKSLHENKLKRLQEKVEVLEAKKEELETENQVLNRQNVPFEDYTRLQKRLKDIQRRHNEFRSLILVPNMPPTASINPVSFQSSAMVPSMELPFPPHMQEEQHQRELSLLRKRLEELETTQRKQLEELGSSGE

T2: SCLT1 constructs (human) (UniProt Q96NL6)
T2 sequence: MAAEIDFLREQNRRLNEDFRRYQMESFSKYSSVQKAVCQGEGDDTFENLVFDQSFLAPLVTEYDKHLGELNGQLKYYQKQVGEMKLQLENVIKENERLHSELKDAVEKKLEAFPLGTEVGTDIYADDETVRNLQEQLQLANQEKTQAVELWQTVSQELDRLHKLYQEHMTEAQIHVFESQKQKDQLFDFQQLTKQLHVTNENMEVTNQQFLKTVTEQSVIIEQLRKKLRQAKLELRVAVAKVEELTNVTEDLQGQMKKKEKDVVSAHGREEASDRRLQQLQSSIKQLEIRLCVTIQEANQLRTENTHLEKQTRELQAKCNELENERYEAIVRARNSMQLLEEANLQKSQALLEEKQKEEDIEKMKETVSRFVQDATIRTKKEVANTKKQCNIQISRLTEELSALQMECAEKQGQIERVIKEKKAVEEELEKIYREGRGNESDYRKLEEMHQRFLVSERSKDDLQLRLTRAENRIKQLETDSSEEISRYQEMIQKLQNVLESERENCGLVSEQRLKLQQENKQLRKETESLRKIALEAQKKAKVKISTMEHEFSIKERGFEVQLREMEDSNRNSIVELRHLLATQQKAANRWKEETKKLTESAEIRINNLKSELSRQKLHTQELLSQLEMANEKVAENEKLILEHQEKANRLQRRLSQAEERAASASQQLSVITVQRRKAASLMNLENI

T3: coiled coil domain of SCLT1 (SCLT1 C-terminus, 554-688 aa) (human) (UniProt Q96NL6)
T3 sequence: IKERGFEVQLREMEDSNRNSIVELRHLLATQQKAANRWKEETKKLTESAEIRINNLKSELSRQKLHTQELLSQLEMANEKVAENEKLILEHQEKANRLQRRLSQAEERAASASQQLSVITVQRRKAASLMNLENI


Columns and labels:
Experiment in all cases: two-hybrid
Cep123 (human) = Cep123 (human) (UniProt Q96ST8)
Cep83 constructs (human) = biological target: T1, Cep83 constructs (human)
SCLT1 constructs (human) = biological target: T2, SCLT1 constructs (human)
[1] = biological target: T3, coiled coil domain of SCLT1 (SCLT1 C-terminus, 554-688 aa) (human)

binding (Cep123 (human))	binding (Cep83 constructs (human))	binding (SCLT1 constructs (human))	binding [1]	Binder
no binding	binds	binds		LRRC45, full length (protein, UniProt Q96CN5 1-670) MEEFRRSYSRLCRESGAEPQEAVLQQLHQLPRGRLDLATQSLTVETCRALGKLLPRETLCTELVLSDCMLSEEGATLLLRGLCANTVLRFLDLKGNNLRAAGAEALGKLLQQNKSIQSLTLEWNSLGTWDDAFATFCGGLAANGALQRLDLRNNQISHKGAEELALALKGNTTLQQLDLRWNNVGLLGGRALMNCLPSNRTLWRLDLAGNNIPGDVLRAVEQAMGHSQDRLTTFQENQARTHVLSKEVQHLREEKSKQFLDLMETIDKQREEMAKSSRASAARVGQLQEALNERHSIINALKAKLQMTEAALALSEQKAQDLGELLATAEQEQLSLSQRQAKELKLEQQEAAERESKLLRDLSAANEKNLLLQNQVDELERKFRCQQEQLFQTRQEMTSMSAELKMRAIQAEERLDMEKRRCRQSLEDSESLRIKEVEHMTRHLEESEKAMQERVQRLEAARLSLEEELSRVKAAALSERGQAEEELIKAKSQARLEEQQRLAHLEDKLRLLAQARDEAQGACLQQKQVVAEAQTRVSQLGLQVEGLRRRLEELQQELSLKDQERVAEVSRVRVELQEQNGRLQAELAAQEALREKAAALERQLKVMASDHREALLDRESENASLREKLRLREAEIARIRDEEAQRASFLQNAVLAYVQASPVRTLSPPK
			binds	leucine-rich repeats of LRRC45 (LRRC45 1-222 aa) (domain or fragment, UniProt Q96CN5 1-222) MEEFRRSYSRLCRESGAEPQEAVLQQLHQLPRGRLDLATQSLTVETCRALGKLLPRETLCTELVLSDCMLSEEGATLLLRGLCANTVLRFLDLKGNNLRAAGAEALGKLLQQNKSIQSLTLEWNSLGTWDDAFATFCGGLAANGALQRLDLRNNQISHKGAEELALALKGNTTLQQLDLRWNNVGLLGGRALMNCLPSNRTLWRLDLAGNNIPGDVLRAVEQ
